{"source": "PubChem BioAssay AID1259254 (NCATS, 2017)", "purpose": "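Finding genes that stop cells copying their DNA twice in one cycle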 (primary screen)", "system": "human HCT116 colorectal cancer cells", "reagent": "single siRNA against human genes", "duration": "3 days", "detection": "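Imaged Hoechst DNA stain sorts each cell into a cycle phase by DNA amount; per plate, G2 fraction set to 0% for non-targeting and 100% for GMNN siRNA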", "scale": "G2 robust z-score: higher = more G2 cells, more excess DNA replication", "hit rule": "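An siRNA counts as active if its G2 robust z-score lies at least 5 MADs above the screen median; here such calls match roughly 38% of GMNN control or more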", "note": "The whole screen tested about 59,000 reagents; shown is a part drawn at random. Of all reagents, about 1,550 (2.6%) are marked active. 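G2 share is only a proxy for re-replication; each gene was hit by three separate siRNAs, and active genes were retested.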 Not all columns of the deposit are shown. The record does not give: the amount of reagent."}
{"gene knocked down":"LINC00174","PubChem SID":"SID160763742","G2 robust z-score":-0.0676,"outcome":"inactive"}
{"gene knocked down":"LINC00174","PubChem SID":"SID160763743","G2 robust z-score":-0.448,"outcome":"inactive"}
{"gene knocked down":"LINC00174","PubChem SID":"SID160763744","G2 robust z-score":-0.477,"outcome":"inactive"}
{"gene knocked down":"ATP13A4","PubChem SID":"SID160732015","G2 robust z-score":-0.375,"outcome":"inactive"}
{"gene knocked down":"ATP13A4","PubChem SID":"SID160751935","G2 robust z-score":-0.534,"outcome":"inactive"}
{"gene knocked down":"ATP13A4","PubChem SID":"SID160751936","G2 robust z-score":-0.742,"outcome":"inactive"}
{"gene knocked down":"YY1","PubChem SID":"SID160718929","G2 robust z-score":1.82,"outcome":"inactive"}
{"gene knocked down":"YY1","PubChem SID":"SID160718931","G2 robust z-score":2.77,"outcome":"inactive"}
{"gene knocked down":"YY1","PubChem SID":"SID160731878","G2 robust z-score":1.59,"outcome":"inactive"}
{"gene knocked down":"UAP1L1","PubChem SID":"SID160753959","G2 robust z-score":0.0419,"outcome":"inactive"}
{"gene knocked down":"UAP1L1","PubChem SID":"SID160753960","G2 robust z-score":2.57,"outcome":"inactive"}
{"gene knocked down":"UAP1L1","PubChem SID":"SID160753961","G2 robust z-score":-0.218,"outcome":"inactive"}
{"gene knocked down":"ABCD4","PubChem SID":"SID160715476","G2 robust z-score":0.639,"outcome":"inactive"}
{"gene knocked down":"ABCD4","PubChem SID":"SID160715477","G2 robust z-score":-0.905,"outcome":"inactive"}
{"gene knocked down":"ABCD4","PubChem SID":"SID160715479","G2 robust z-score":1.66,"outcome":"inactive"}
{"gene knocked down":"ANGEL2","PubChem SID":"SID160753809","G2 robust z-score":-0.756,"outcome":"inactive"}
{"gene knocked down":"ANGEL2","PubChem SID":"SID160753810","G2 robust z-score":-0.869,"outcome":"inactive"}
{"gene knocked down":"ANGEL2","PubChem SID":"SID160753811","G2 robust z-score":2.89,"outcome":"inactive"}
{"gene knocked down":"TRPV1","PubChem SID":"SID160718781","G2 robust z-score":0.8,"outcome":"inactive"}
{"gene knocked down":"TRPV1","PubChem SID":"SID160718782","G2 robust z-score":-1.7,"outcome":"inactive"}
{"gene knocked down":"TRPV1","PubChem SID":"SID160718783","G2 robust z-score":0.694,"outcome":"inactive"}
{"gene knocked down":"ARL8B","PubChem SID":"SID160743226","G2 robust z-score":0.903,"outcome":"inactive"}
{"gene knocked down":"ARL8B","PubChem SID":"SID160743227","G2 robust z-score":3.03,"outcome":"inactive"}
{"gene knocked down":"ARL8B","PubChem SID":"SID160743229","G2 robust z-score":5.46,"outcome":"active"}
{"gene knocked down":"DNAJB9","PubChem SID":"SID160777079","G2 robust z-score":0.482,"outcome":"inactive"}
{"gene knocked down":"DNAJB9","PubChem SID":"SID160777080","G2 robust z-score":-0.16,"outcome":"inactive"}
{"gene knocked down":"DNAJB9","PubChem SID":"SID160777081","G2 robust z-score":0.392,"outcome":"inactive"}
{"gene knocked down":"PRPSAP1","PubChem SID":"SID160715083","G2 robust z-score":-0.86,"outcome":"inactive"}
{"gene knocked down":"PRPSAP1","PubChem SID":"SID160715085","G2 robust z-score":-1.02,"outcome":"inactive"}
{"gene knocked down":"PRPSAP1","PubChem SID":"SID160715086","G2 robust z-score":-0.535,"outcome":"inactive"}

Already shown: 2 of the entries above.
{"gene knocked down":"PRPSAP1","PubChem SID":"SID160715083","G2 robust z-score":-0.86,"outcome":"inactive"}
{"gene knocked down":"PRPSAP1","PubChem SID":"SID160715085","G2 robust z-score":-1.02,"outcome":"inactive"}
